Reference: PubChem BioAssay AID290 (DTP/NCI, 2004)
The list does not hold the whole screen: it gathers some chemical classes. Not every dose and run of a compound is shown. T/C: endpoint of the treated group in % of that of the vehicle group. Some entries show no survivor count and are marked so; the dose need not have been tolerated. Schedule codes are those of the source, taken here to give the interval after Q, in days (D) or hours (H), and the number of doses after X.

Test system: mice, P1798 lymphosarcoma sc, survival or tumor weight T/C
Assay: NCI In Vivo Anticancer Drug Screen. Data for tumor model P1798 Lymphosarcoma (subcutaneous) in unknown mice
Conditions: T/C endpoint: mean tumor weight, schedule: Q01DX010 (ip), vehicle: saline, evaluation day not shown, higher T/C = larger tumour
Procedure: The antitumor activity of compounds was measured in mice bearing transplantable tumors. Survival or tumor size were measured and the results are expressed as the measurement made in the treated group (T) divided by the measurement made in the vehicle treated control group (C). The tumor model used in this assay is P1798 Lymphosarcoma (subcutaneous) in unknown mice

CN(CCCl)CCCl
T/C (dose: 0.01 mg/kg/injection): 84 % of control [survivor count not shown]
T/C (dose: 0.02 mg/kg/injection): 107 % of control [survivor count not shown]
T/C (dose: 0.04 mg/kg/injection): 92 % of control [survivor count not shown]
T/C (dose: 5.0 micrograms/kg/injection): 117 % of control [survivor count not shown]
T/C (dose: 20.0 micrograms/kg/injection): 125 % of control [survivor count not shown]
